Experiment [1] addresses EGFR, transfected in 293T cells (UniProt P00533). Description: co-IP; 293T cells co-transfected with EGFR and ZNRF3/RNF43 WT or ΔPA constructs; the precipitating antibody is not told.
Experiment [2] deals with EGFR, transfected in HCT116 cells (UniProt P00533). Description: proximity ligation; HCT116 cells co-transfected with Myc-ZNRF3ΔRING and EGFR; Duolink In Situ Red kit; anti-EGFR rabbit and anti-Myc-tag mouse primary antibodies; no primary antibody as negative control.

Protein sequences, listed by entry. Tags and fused reporters are not part of them. Lines headed by an entry give the natural chain unless they say otherwise; changes in a name come on top.
UniProt Q9ULT6: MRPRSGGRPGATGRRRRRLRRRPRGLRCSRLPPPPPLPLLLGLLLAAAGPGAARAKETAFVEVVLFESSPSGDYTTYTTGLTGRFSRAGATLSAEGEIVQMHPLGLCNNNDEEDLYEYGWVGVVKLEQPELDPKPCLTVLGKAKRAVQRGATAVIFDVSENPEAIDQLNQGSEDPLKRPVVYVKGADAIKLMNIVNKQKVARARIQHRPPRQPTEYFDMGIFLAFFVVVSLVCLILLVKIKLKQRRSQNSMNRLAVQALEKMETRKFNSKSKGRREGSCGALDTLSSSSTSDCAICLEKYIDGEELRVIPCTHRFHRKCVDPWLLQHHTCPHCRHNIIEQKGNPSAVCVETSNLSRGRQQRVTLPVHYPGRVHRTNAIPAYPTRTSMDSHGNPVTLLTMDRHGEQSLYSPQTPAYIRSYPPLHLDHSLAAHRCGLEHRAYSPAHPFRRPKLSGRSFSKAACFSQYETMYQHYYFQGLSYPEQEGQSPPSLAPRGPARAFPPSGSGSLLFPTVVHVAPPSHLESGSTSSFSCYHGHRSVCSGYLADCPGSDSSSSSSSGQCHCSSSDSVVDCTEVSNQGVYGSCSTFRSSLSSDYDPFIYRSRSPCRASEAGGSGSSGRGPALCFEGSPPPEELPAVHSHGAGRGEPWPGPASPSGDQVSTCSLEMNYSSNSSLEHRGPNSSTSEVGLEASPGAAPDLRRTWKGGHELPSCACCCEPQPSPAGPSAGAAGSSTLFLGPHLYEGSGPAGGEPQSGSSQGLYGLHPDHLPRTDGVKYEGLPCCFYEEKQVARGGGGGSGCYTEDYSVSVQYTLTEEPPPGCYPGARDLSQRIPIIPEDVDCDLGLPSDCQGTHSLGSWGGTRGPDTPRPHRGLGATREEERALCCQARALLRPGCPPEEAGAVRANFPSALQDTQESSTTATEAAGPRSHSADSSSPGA

Results are given in words; binding and its absence hold for the method and conditions named. In cells and extracts the contact can be indirect. Binding calls can cover weak binding; strength is not graded here.

Regarding “Myc-ZNRF3 ΔPA (from UniProt Q9ULT6) (enzyme)”, the binding entry in experiment [1] is reported as “binds”.

Regarding “Myc-ZNRF3ΔRING (from UniProt Q9ULT6) (enzyme)”, the binding result in experiment [2] is listed as “binds”.
